These results are taken from ChEMBL document CHEMBL4513142, “CO-ADD screening of Indiana University - Purdue University Indianapolis (USA) compounds”.

Several values for one entry are separate records, joined by “and”; a condition that tells them apart may be missing. Equal entries are not always repeated. This is one part of the list. Measured potencies and affinities stand elsewhere.

The test system of this assay is Pseudomonas aeruginosa. The following applies: Concentration 32 ug.mL-1;, ASSAY_TEST Inhibition of Bacterial Growth, detection method Absorption (OD600), MEDIA CAMHB, plate type 384well, NBS, CORNING #3640, time 18 hr.

By Inhibition is commonly meant the drop in the measured response relative to a control, in per cent. On to `CC(C)C[C@H](NC(=O)c1ccc(Cl)cc1Cl)C(N)=O`, for which the Inhibition (32 ug/mL) was 6.74% and -9.21%.

`CCCNC(=O)C(Cc1ccccc1)NC(=O)Cc1ccccc1` (configuration not stated): the Inhibition is 25.17%.

As for `[C-]#[N+]c1ccc(C(=O)NC(Cc2ccc(C(F)(F)F)cc2)C(=O)NCCC)cc1` (configuration not stated), the Inhibition is 17.34%.

As for `NC(Cc1ccccc1I)C(=O)O.O=C(O)C(F)(F)F` (configuration not stated), the Inhibition (32 ug/mL) was -20.47% and -2.69%.

Consider `C[C@H](NC(=O)c1ccccc1Cl)C(=O)O`, for which, where the note is “32 ug/mL”, the Inhibition is -3.39% and -0.78%.

Turning to `O=C(Cc1cccc(Br)c1)N[C@@H](Cc1ccccc1)C(=O)O`, the Inhibition (32 ug/mL) is 0.64% and -5.32%.

As to `[C-]#[N+]c1ccc(C(=O)NC(CC)C(=O)NCCC)cc1` (configuration not stated), the Inhibition amounted to 13.69%.

As for `[C-]#[N+]c1ccc(C(=O)NC(Cc2ccccc2F)C(=O)NCCC)cc1` (configuration not stated), the Inhibition came to 12.45%.

With `CCCNC(=O)C(Cc1ccccc1C)NC(=O)c1ccc(C(F)(F)F)cc1` (configuration not stated), the Inhibition came to 13.98%.

With `NC(Cc1ccccc1F)C(=O)O.O=C(O)C(F)(F)F` (configuration not stated), for the setting “32 ug/mL”, the Inhibition is -23.91% and -26.05%.

Regarding `[C-]#[N+]c1ccc(C(=O)NC(CC#C)C(=O)NCCC)cc1` (configuration not stated), the Inhibition was determined as 14.53%.

In the case of `CCCNC(=O)C(Cc1ccc(F)cc1)NC(=O)c1ccccc1` (configuration not stated), the Inhibition was found to be 15.85%.

Consider `COc1cc(C(=O)N[C@@H](CC(C)C)C(=O)O)ccc1O`, for which the Inhibition (32 ug/mL) was 4.81% and 14.24%.

On to `CC(C)C[C@H](NC(=O)c1cccnc1)C(N)=O`, for which the Inhibition (32 ug/mL) was 8.83% and -13.69%.

Take `CCCNC(=O)C(Cc1ccccc1)NC(=O)c1ccc(F)cc1` (configuration not stated): the Inhibition was 18.15%.

`[C-]#[N+]c1ccc(C(=O)NC(Cc2ccc(F)cc2)C(=O)NCCC)cc1` (configuration not stated): the Inhibition is 23.54%.

Turning to `NC(=O)[C@@H]1CCCN1C(=O)c1ccccn1`, the Inhibition (32 ug/mL) is 13.77% and -3.54%.

For `NC(Cc1ccc(F)c(F)c1)C(=O)O.O=C(O)C(F)(F)F` (configuration not stated), the Inhibition (32 ug/mL) is -17.31% and -13.86%.

Consider `Cc1ccc(C(=O)NC(Cc2ccccc2C#N)C(=O)O)cc1` (configuration not stated), for which, where the note is “32 ug/mL”, the Inhibition is 8.47% and 1.38%.

Regarding `Cc1ccc(C(=O)NC(Cc2cc(F)c(F)cc2F)C(=O)O)cc1` (configuration not stated), the Inhibition (32 ug/mL) is -14.53% and 4.74%.

Consider `CC(C)[C@H](NC(=O)c1cccc(C(F)(F)F)c1)C(=O)O`, for which the Inhibition (32 ug/mL) is -2.92% and -9.19%.

As for `[C-]#[N+]c1ccc(C(=O)NC(CC=C)C(=O)NCCC)cc1` (configuration not stated), the Inhibition is 9.14%.

For the molecule `O=C(NC(Cc1ccc(Cl)nc1)C(=O)O)c1ccccc1` (configuration not stated), the Inhibition (32 ug/mL) is 0.13% and -0.76%.

As to `NC(=O)[C@H](Cc1ccccc1)NC(=O)c1cccnc1`, the Inhibition (32 ug/mL) is 25.42% and 22.49%.

`NC(Cc1cccc(F)c1)C(=O)O.O=C(O)C(F)(F)F` (configuration not stated): for the setting “32 ug/mL”, the Inhibition was -32.18% and -12.96%.

As for `O=C(NC(CCCc1ccccc1)C(=O)O)c1cccc2ccccc12` (configuration not stated), where the note is “32 ug/mL”, the Inhibition was -9.59% and 6.72%.

As to `NC(Cc1ccc(F)cc1)C(=O)O.O=C(O)C(F)(F)F` (configuration not stated), the Inhibition (32 ug/mL) is -25.43% and -46.24%.
